Source: patent US8618068B2, “Methods and low dose regimens for treating red blood cell disorders” (priority 2009, dated 2013)
Some of these results come from one statement about several compounds together. At least one compound was matched to its structure with a doubt left.

Experiment: Pharmacokinetics of single doses in 5 baboons
Format: in vivo
Conditions: estimated therapeutic doses
Protocol: Pharmacokinetics analyses have been conducted with DMB and 2,2-dimethylbutyric acid neutralized with L-arginine in baboons, dogs, and rats. The AUC per dose varied between animals.
Pharmacokinetic analyses of 2,2-dimethylbutyrate was conducted as either the sodium salt or the L-arginine salt, via the oral or intravenous route, as single doses to 5 baboons at doses of 33.3, 83.3, 100, 125 or 167 mg/kg free acid.
The data collected on DMB in plasma allowed an assessment of pharmacokinetic parameters; however, since collection time points were not performed in some baboons during the terminal elimination phase, these determinations are preliminary. The AUC per dose varied between animals. The area under the plasma concentration time-curve (AUC0-24 hr) following oral administration of DMB at 83.3 or 125 mg/kg free acid (100 and 150 mg/kg with salt) ranged from 1962-9363 μmol·h/L ([…]).

For `CCC(C)(C)C(=O)O.N=C(N)NCCC[C@H](N)C(=O)O` [2,2-dimethylbutyric acid neutralized with L-arginine], the “Oral bioavailability over 24 hours” value was > 60%.
